These results are taken from PubChem BioAssay AID445 (National Center for Advancing Translational Sciences (NCATS), 2006).

The other results are listed elsewhere or left out. Further columns of the screen follow, without active or inactive calls. Compounds called inactive in the main read-out are mostly missing here. Words in brackets tell the shape of the fitted curve; partial curves, single points and poor fits give uncertain potencies.

The nature of the assay: IkB Signaling. To be noted: ABC-DLBCL IkBa-CBG/CBR dual luciferase ratio (green luciferase fused to IkBa over red control in OCI-Ly3 lymphoma cells), 4 h. A digest of the protocol:
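In this assay, an IκBα–CBG68 fusion accumulates when IKK-driven degradation is blocked; native CBR normalizes for cell number. OCI-Ly3 cells were treated 4 h with compound and doxycycline, then green and red light read after Chroma-Glo addition.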

Setting [1] is: measured here: control luc red channel unless noted.
The mark [2] stands for this setting: measured here: IkB-luc green channel.
[3] abbreviates: measured here: control luc red channel.

What is called AC50 is the concentration giving half of the maximal activity seen.

In the case of `O=C(CCC1N=C2c3ccccc3N=C(SCc3ccc(F)cc3)N2C1=O)N1CCN(c2ccccc2)CC1` (stereo not given), under setting [1], the concentration at half-maximal activity (AC50) was 39.8 µM [falling, single point].
The same measure, in the same setting: under `COc1ccc(NC(=O)[C@@H]2[C@@H]3C(=O)N(C4CCCCC4)C(=O)[C@@H]3C3c4ccccc4C=CN32)cc1` (stereo not given in full) stands 15.8 µM [falling, partial curve]; under `CCOC(=O)c1ccc(N2C(=O)c3n[nH]c(-c4cccs4)c3C2c2cccc(O)c2)cc1` (stereo not given), 12.6 µM [falling, partial curve].
Still for that read-out and setting: the figure for `COc1ccc(N2CCN(C(=O)CCCCn3c(=O)[nH]c4ccsc4c3=O)CC2)cc1` is 10 µM [falling, partial curve]; for `CC(C)c1ccc(CNC(=O)c2ccc(N3CCCC3)c(NC(=O)NCc3ccc(F)cc3)c2)cc1` it is 7.94 µM [falling, partial curve].
Still for that read-out and setting: under `COC(=O)c1c(SCC(=O)Nc2ccccc2C(F)(F)F)[nH]c2ccc(Cl)cc2c1=O` stands 3.98 µM [falling, full curve].
`C=CCn1c2ccccc2c2nnc(SCCCn3c(=O)[nH]c4ccccc43)nc21`: the AC50 reads like this: under setting [2], 5.01 µM [falling, partial curve]; under setting [3], 3.98 µM [falling, full curve].
For the molecule `COC(=O)c1cccc(NC(=O)NC2CCCN2S(=O)(=O)c2ccc(Cl)cc2)c1` (stereo not given), the AC50 under setting [1] is 15.8 µM [falling, partial curve].
Still for that read-out and setting: the figure for `CC(=O)c1ccc(NC(=O)CSc2nnc3c(n2)[nH]c2ccccc23)cc1` is 15.8 µM [falling, partial curve]; for `COc1ccccc1N1CCN(C(=O)CCc2ccc(S(=O)(=O)NC(C)C)cc2)CC1` it is 31.6 µM [falling, partial curve].
Same read-out and setting: under `CC1=C(C(=O)Nc2ccc(C)cc2C)C(c2cccs2)n2nc(SCc3ccc(Cl)cc3)nc2N1` (stereo not given) stands 2.51 µM [falling, full curve, poor fit]; under `CC(=O)c1ccc(NC(=O)CC2Sc3ccccc3NC2=O)cc1` (stereo not given), 39.8 µM [falling, single point].
Consider `COc1ccc(-c2csc3ncnc(Nc4cccc(F)c4)c23)cc1`, for which, under setting [1], the AC50 is 31.6 µM [falling, single point].
Turning to `Cc1cc(Oc2nc3ccccn3c(=O)c2/C=C(\C#N)c2nc3ccccc3s2)ccc1Cl`, the AC50 by setting is: under setting [2], 31.6 µM [rising, single point]; under setting [3], 2 µM [falling, full curve].
On to `Cc1ccc(NC(=O)C2CCN(C(=O)c3cnn(-c4ccccc4)c3-n3cccc3)CC2)cc1Cl`, for which the AC50 under setting [1] was 12.6 µM [falling, partial curve].
On the same count and under the same terms, under `COc1cc2cc(CN(C(=O)Nc3ccccc3)C3CCCC3)c(=O)[nH]c2cc1OC` stands 10 µM [falling, partial curve]; under `CCCCOc1ccccc1NC(=O)c1ccco1`, 25.1 µM [falling, partial curve].
The same measure, in the same setting: the figure for `Cc1ccc(Cl)cc1NC(=O)C(NS(=O)(=O)c1ccc2c(c1)CCC(=O)N2)c1ccccc1` (stereo not given) is 15.8 µM [falling, partial curve]; for `CCc1ccc(NCc2cc3cc(OC)c(OC)cc3n(CC(=O)Nc3ccc(F)cc3)c2=O)cc1` it is 12.6 µM [falling, partial curve].
The same measure, in the same setting: the figure for `CC(C)(C)C(=O)Nc1ccc2nc(SCc3ccccc3)sc2c1` is 25.1 µM [falling, partial curve].
On to `COc1ccc(C(=O)n2c(-c3ccco3)nc3ccccc32)cc1`, for which the AC50 under setting [1] was 39.8 µM [falling, single point].
With `Cc1ccccc1C(=O)NC(=O)Nc1ccc(-n2nc(C(F)(F)F)cc2C(F)(F)F)cc1`, the AC50 under setting [1] is 10 µM [rising, partial curve].
Consider `CC(C)c1ccc(NC(=O)C(Cc2ccccc2)n2cccc2)cc1` (stereo not given), for which, under setting [1], the AC50 was 39.8 µM [falling, single point].
On the same count and under the same terms, the figure for `CCCc1cc(=O)n2[nH]c(-c3ccc(Br)cc3)cc2n1` is 5.01 µM [falling, partial curve]; for `CC(=O)Nc1nonc1-c1nnc(SCC(=O)Nc2c(C)cccc2C)n1-c1ccccc1` it is 15.8 µM [falling, single point]; for `CCn1cc(C(=O)NCc2ccc(Cl)cc2)c(=O)c2cc(S(=O)(=O)N3CCc4ccccc4C3)ccc21` it is 3.98 µM [falling, partial curve].
Same read-out and setting: the figure for `CCCCC12CN3CC(C)(CN(C1)C3c1ccc(OCc3ccccc3)cc1)C2=O` (stereo not given) is 20 µM [falling, partial curve]; for `O=C(C1CCN(S(=O)(=O)c2cccs2)CC1)N1CCN(c2ccccc2F)CC1` it is 20 µM [falling, single point].
Same read-out and setting: under `O=C(CCCCCn1c(=O)[nH]c2ccccc2c1=O)N1CCN(c2cccc(C(F)(F)F)c2)CC1` stands 39.8 µM [falling, single point].
Regarding `C[C@H](NC(=O)/C(C#N)=C/c1ccc(O)c(O)c1)c1ccccc1`, the AC50 under setting [1] was 39.8 µM [falling, single point].
On the same count and under the same terms, the figure for `FC(F)(F)c1cccc(Nc2nc3nonc3nc2Nc2ccc(Cl)cc2)c1` is 0.126 µM [falling, full curve].
Regarding `CCC(CC)C(=O)Nc1ccc(S(=O)(=O)N2CCC(c3nc4ccccc4s3)CC2)cc1`, under setting [1], the AC50 is 20 µM [falling, single point].
The same measure, in the same setting: the figure for `Cc1nc(-c2ccc(S(=O)(=O)N3CCN(c4ccccc4F)CC3)cc2)co1` is 31.6 µM [falling, partial curve].
On to `CCN(C(=O)Cn1c(C(=O)OC)cc2sccc21)c1cccc(C)c1`, for which the AC50 under setting [1] was 39.8 µM [falling, partial curve, poor fit].
Still for that read-out and setting: the figure for `CC(C)NC(=O)c1ccc(CSc2nc3ccncc3n2Cc2cccc(F)c2)cc1` is 15.8 µM [falling, single point].
On the same count and under the same terms, the figure for `CCCCN(CCCC)CCCNC(=O)c1cc(-c2ccc(Cl)s2)nc2ccccc12` is 10 µM [falling, partial curve]; for `CC(C)c1ccc(C2CC(=O)N3CN(C4CCCCC4)CSC3=C2C#N)cc1` (stereo not given) it is 15.8 µM [falling, single point].
The same measure, in the same setting: the figure for `Cn1ccc2cc(S(=O)(=O)N3CCCC(C(=O)NCc4ccccc4F)C3)ccc21` (stereo not given) is 5.01 µM [falling, partial curve].
